Article PMC12350847

Amino acid sequences for entries named in this document (tags omitted). A change or cut given only in a name is not applied to a line headed by its entry.
UniProt P26651: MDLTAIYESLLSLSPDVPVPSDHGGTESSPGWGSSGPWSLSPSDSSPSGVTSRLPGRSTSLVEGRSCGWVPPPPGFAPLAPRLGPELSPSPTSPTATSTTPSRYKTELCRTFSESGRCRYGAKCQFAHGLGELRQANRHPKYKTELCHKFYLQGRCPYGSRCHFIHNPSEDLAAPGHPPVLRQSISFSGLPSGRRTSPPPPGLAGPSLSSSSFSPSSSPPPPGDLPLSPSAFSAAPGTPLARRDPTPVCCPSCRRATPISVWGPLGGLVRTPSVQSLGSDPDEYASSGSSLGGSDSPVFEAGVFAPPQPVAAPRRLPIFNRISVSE

Legend:
Experiment in all cases: EMSA
[1] = target: pTTP (OA), hyperphosphorylated TTP (Homo sapiens) (UniProt P26651); conditions: okadaic acid-induced hyperphosphorylation, 400 nM protein, 50 nM RNA; EMSA: 50 nM RNA, 400 nM TTP proteins or 200 nM pZFP36L2; recombinant protein; residues 1-326; protein details: N-terminal MBP (TEV-cleavable), C-terminal StrepII
[2] = target: pTTP (phosphorylated tristetraprolin) (Homo sapiens) (UniProt P26651); conditions: no okadaic acid, 400 nM protein, 50 nM RNA; EMSA: 50 nM RNA, 400 nM TTP proteins or 200 nM pZFP36L2; recombinant protein; residues 1-326; protein details: N-terminal MBP (TEV-cleavable), C-terminal StrepII
[3] = target: T1, pZFP36L2 (Homo sapiens) (UniProt P47974); conditions: 200 nM protein, 50 nM RNA; EMSA: 50 nM RNA, 400 nM TTP proteins or 200 nM pZFP36L2; recombinant protein; residues 1-494; protein details: N-terminal MBP (TEV-cleavable), C-terminal StrepII
T1 sequence (looked up): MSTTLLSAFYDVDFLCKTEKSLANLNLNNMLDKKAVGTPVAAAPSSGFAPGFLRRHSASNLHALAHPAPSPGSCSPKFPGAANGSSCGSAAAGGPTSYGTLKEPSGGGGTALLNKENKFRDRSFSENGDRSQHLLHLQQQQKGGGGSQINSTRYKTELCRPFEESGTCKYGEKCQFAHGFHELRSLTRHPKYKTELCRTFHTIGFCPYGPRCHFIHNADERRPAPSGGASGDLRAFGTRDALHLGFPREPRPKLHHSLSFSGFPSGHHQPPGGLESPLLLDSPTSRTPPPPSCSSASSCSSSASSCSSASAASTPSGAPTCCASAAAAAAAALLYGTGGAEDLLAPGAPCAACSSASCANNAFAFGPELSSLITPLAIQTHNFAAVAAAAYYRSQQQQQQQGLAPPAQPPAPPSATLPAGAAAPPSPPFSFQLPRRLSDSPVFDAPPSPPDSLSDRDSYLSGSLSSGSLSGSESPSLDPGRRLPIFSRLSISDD

[4] = test system: pZFP36L2 + 14-3-3 eta; conditions: tenfold excess of 14-3-3 eta, no difference from pZFP36L2 alone; EMSA: 50 nM RNA, 400 nM TTP proteins or 200 nM pZFP36L2; recombinant protein
[5] = test system: pZFP36L2 + 14-3-3 beta; conditions: tenfold excess of 14-3-3 beta, no difference from pZFP36L2 alone; EMSA: 50 nM RNA, 400 nM TTP proteins or 200 nM pZFP36L2; recombinant protein

UUAUUUAUUAAAAAAAAAAAAAAAAAAAA [ARE-WT-RNA (single TTP motif, A20 tail)]
binding result [1]: no binding | binding result [2]: binds | binding result [3]: binds | binding result [4]: binds | binding result [5]: binds

For at least one entry, the source does not settle the construct or the ends of the probe. For some assays here: No signal at the amounts used counts as a negative. For some assays here: At least one verdict rests on a figure or table, not on a statement of the authors. For some assays here: Protein sequences can lack the tags named with them.
